Results as given in paper doi:10.1101/2021.05.09.443305.
These are yes or no findings as the source states them, for the method shown. Binding seen in cells or lysates may run through a third protein. A result given as binding can be weak or reduced; the word gives no strength.

T1: protein phosphatase 1 regulatory inhibitor subunit 14C (human (endogenous in SUM159PT)) (UniProt Q8TAE6)
T1 sequence: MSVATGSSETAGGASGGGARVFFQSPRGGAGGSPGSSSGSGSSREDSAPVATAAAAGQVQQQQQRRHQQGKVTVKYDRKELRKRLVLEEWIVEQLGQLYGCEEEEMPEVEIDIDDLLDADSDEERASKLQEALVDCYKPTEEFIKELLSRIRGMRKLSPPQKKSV


Columns and labels:
[1] = biological target: T1, protein phosphatase 1 regulatory inhibitor subunit 14C (human (endogenous in SUM159PT)); assay: co-IP
[2] = biological target: type 1 Ser/Thr protein phosphatase (human (endogenous in SUM159PT)); assay: co-IP

Row | binding [1] | binding [2] | Molecule
1 | binds |  | type 1 Ser/Thr protein phosphatase (human (endogenous in SUM159PT)) (enzyme)
2 |  | binds | protein phosphatase 1 regulatory inhibitor subunit 14C (protein, UniProt Q8TAE6 1-165) MSVATGSSETAGGASGGGARVFFQSPRGGAGGSPGSSSGSGSSREDSAPVATAAAAGQVQQQQQRRHQQGKVTVKYDRKELRKRLVLEEWIVEQLGQLYGCEEEEMPEVEIDIDDLLDADSDEERASKLQEALVDCYKPTEEFIKELLSRIRGMRKLSPPQKKSV
